Drawing on article PMC8454973, this text covers binding for 1 molecule.

The target in this assay is eukaryotic initiation factor 4G (eIF4G), endogenous (human (endogenous in Huh-7 and HEK 293T)). As to the kind of experiment: co-IP.

No constants are given. Whether binding was seen depends on the method and setting. Binding seen in cells or lysates may run through a third protein. Binding calls can cover weak binding; strength is not graded here. Where a sequence is shown, tags or fusion partners need not be part of it.

B1: human RNA-binding protein Mex3A with C-terminal HA tag (hMex3A-HA) (protein, UniProt A1L020 1-520)
chain: MPSLVVSGIMERNGGFGELGCFGGSAKDRGLLEDERALQLALDQLCLLGLGEPPAPTAGEDGGGGGGGAPAQPAAPPQPAPPPPPAAPPAAPTAAPAAQTPQPPTAPKGASDAKLCALYKEAELRLKGSSNTTECVPVPTSEHVAEIVGRQGCKIKALRAKTNTYIKTPVRGEEPVFMVTGRREDVATARREIISAAEHFSMIRASRNKSGAAFGVAPALPGQVTIRVRVPYRVVGLVVGPKGATIKRIQQQTNTYIITPSRDRDPVFEITGAPGNVERAREEIETHIAVRTGKILEYNNENDFLAGSPDAAIDSRYSDAWRVHQPGCKPLSTFRQNSLGCIGECGVDSGFEAPRLGEQGGDFGYGGYLFPGYGVGKQDVYYGVAETSPPLWAGQENATPTSVLFSSASSSSSSSAKARAGPPGAHRSPATSAGPELAGLPRRPPGEPLQGFSKLGGGGLRSPGGGRDCMVCFESEVTAALVPCGHNLFCMECAVRICERTDPECPVCHITATQAIRIFS
For B1, the binding entry is “binds”.
